Reference: patent US20090220511A1

The chains behind the UniProt entries cited, without tags or fusion partners. Where a name states a change or a piece, a line headed by the entry shows the natural chain unless it says otherwise.
UniProt P15260: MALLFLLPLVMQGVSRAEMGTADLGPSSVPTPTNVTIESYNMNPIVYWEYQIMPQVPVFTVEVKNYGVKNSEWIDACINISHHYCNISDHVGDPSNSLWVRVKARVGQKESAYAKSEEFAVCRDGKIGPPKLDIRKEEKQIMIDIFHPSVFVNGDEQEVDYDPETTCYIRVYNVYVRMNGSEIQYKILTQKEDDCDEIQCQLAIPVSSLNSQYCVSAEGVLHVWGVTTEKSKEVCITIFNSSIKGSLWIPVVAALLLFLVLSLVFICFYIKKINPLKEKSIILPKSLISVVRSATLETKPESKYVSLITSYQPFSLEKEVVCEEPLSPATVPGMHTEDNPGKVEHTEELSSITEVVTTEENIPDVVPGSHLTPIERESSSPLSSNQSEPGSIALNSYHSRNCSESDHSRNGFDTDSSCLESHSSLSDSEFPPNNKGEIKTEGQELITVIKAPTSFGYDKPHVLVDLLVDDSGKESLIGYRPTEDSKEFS

Assays:
[1] = molecular target: T1, chimeric human CRF2-12/γR1 chain and intact human CRF2-4 (IL-10R2) chain expressed together on hamster 16-9 cells (human) (UniProt P15260); assay: crosslinking of 32P-labeled ligand to transfected hamster cells, 7.5% SDS-PAGE
T1 sequence 1: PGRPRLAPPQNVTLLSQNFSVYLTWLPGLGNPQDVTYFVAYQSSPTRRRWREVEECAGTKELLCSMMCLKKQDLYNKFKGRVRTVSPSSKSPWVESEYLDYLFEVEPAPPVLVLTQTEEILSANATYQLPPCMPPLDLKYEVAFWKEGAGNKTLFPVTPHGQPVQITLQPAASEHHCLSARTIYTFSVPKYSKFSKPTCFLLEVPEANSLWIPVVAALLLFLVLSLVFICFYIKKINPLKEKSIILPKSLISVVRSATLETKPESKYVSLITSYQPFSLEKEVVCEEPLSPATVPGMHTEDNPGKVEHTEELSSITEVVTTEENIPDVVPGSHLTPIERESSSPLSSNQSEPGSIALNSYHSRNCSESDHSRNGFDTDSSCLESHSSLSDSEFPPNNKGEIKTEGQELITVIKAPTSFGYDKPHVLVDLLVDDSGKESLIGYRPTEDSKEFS
T1 sequence 2: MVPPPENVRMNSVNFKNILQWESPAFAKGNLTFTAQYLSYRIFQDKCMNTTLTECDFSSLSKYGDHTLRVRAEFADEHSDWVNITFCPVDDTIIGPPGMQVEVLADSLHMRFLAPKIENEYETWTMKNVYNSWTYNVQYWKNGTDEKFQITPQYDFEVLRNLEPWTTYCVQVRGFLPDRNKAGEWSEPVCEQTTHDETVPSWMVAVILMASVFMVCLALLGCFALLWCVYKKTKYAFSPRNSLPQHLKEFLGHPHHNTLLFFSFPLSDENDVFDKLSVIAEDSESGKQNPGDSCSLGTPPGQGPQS

[2] = molecular target: T1, chimeric human CRF2-12/γR1 chain and intact human CRF2-4 (IL-10R2) chain expressed together on hamster 16-9 cells (human); assay: flow cytometry with anti-FLAG antibody on transfected hamster cells

binding [1] | binding [2] | Substance
binds | – | 32P-labeled FL-IFN-λ1-P (ligand)
– | binds | FL-IFN-λ1 (IFN-λ1 tagged at its N-terminus with the FLAG epitope) (ligand)
– | binds | FL-IFN-λ2 (IFN-λ2 tagged at its N-terminus with the FLAG epitope) (ligand)

No constants are given. Whether binding was seen depends on the method and setting. Binding calls can cover weak binding; strength is not graded here.
